The match of structure and compound is tentative.
Biological target: rat EP4 receptor (Rattus norvegicus, UniProt P43114)
Assay: Evaluation test on rat EP4 receptor affinity ([3H]PGE2 binding assay)
Conditions: rat EP4 expressed in HEK293 membrane fraction, [3H]PGE2 0.3 nM
Experimental: Test Example 1: Evaluation Test on Rat EP4 Receptor Affinity
Cell Culture and Transfection
Using a 10 cm collagen-coated dish (Asahi Glass), HEK293 cells were cultured in a D-MEM culture medium, washed with a phosphate buffer saline (PBS), the culture medium was removed off at a confluence (90 to 100% density state), and then the cells were detached with N,N,N′,N′-tetrakis(carboxymethyl)ethylenediamine (EDTA). The cells were counted and seeded on a 15 cm collagen-coated dish to a confluence of 70%. The next day, to an Opti-MEM culture medium at 1.2 mL/dish was added Lipofectamine 2000 (Invitrogen) at 60 μL/dish, followed by being left to stand at room temperature for 5 minutes. A plasmid in which a rat EP4 (alignment number 1) had been inserted into a TA cloning site of pcDNA3.1-V5-His-topo was added thereto to 15 μg/dish. […]
[^3H] […] The UniFilter-96 GF/B after filtration was dried in a dryer overnight, 50 μL/well of MicroScint20 (Perkin Elmer) was added thereto, and then the radioactivity was measured using a TopCount (Perkin Elmer). […] All of the measurements were carried out in duplicate, and the specific binding amount was determined by subtracting the non-specific binding amount from the total binding amount.
According to Test Example 1 as above, the rat EP4 receptor affinity (Ki) of the compound of the formula (I) was measured.

Protein sequences, listed by entry. Tags and fused reporters are not part of them.
UniProt P43114, whole entry: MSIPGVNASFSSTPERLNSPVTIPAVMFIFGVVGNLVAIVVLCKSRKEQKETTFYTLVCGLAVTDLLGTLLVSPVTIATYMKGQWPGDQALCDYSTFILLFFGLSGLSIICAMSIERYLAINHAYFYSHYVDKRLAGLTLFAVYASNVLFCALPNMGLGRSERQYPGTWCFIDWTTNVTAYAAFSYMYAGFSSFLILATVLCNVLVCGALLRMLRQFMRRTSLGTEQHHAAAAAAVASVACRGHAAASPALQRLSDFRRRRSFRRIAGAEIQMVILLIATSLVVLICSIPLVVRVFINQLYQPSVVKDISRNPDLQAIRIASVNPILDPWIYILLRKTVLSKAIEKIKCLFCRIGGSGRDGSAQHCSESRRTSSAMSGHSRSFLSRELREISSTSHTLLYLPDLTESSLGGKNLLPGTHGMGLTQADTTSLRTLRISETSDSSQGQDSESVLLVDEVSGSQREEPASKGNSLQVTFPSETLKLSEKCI

SMILES: Cn1c(C(=O)N[C@@H](CCCNC(=O)OCc2ccccc2)C(=O)N[C@H]2CCC[C@H]2c2noc(=O)[nH]2)cc2ccccc21
- Ki: 0.82 nM

SMILES: Cn1c(C(=O)N[C@@H](CCCNC(=O)OCc2ccccc2)C(=O)N[C@H]2CCC[C@@H]2OCC(=O)O)cc2ccccc21
- Ki: 4.6 nM

— patent US8030489B2, “Ornithine derivative” (Astellas Pharma Inc., priority 2007, dated 2011)
